Molecules are shown by their SMILES. In all, about 9,700 compounds went through this assay and about 180 (1.9%) were called active. Not shown: some 35% with an inconclusive outcome. Calls come from the whole dose curve. The list shows a part of the results.

Protein sequences, listed by entry. Tags and fused reporters are not part of them. Lines headed by an entry give the natural chain unless they say otherwise; changes in a name come on top.
UniProt P19793: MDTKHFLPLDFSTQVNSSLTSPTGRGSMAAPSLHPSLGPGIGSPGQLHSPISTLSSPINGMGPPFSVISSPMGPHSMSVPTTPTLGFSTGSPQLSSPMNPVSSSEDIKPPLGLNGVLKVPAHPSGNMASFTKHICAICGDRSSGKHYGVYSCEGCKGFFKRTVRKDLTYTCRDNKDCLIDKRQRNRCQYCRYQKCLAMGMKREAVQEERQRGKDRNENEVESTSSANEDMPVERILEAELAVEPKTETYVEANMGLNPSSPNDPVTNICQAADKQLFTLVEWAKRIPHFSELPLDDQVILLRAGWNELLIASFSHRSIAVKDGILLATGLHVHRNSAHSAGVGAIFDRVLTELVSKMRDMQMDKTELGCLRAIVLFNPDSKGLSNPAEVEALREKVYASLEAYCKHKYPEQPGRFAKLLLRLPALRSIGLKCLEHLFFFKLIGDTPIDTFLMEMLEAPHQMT

The target in the experiment is Retinoic acid receptor RXR-alpha, Homo sapiens (UniProt P19793). In words: qHTS assay to identify small molecule agonists of the RXR signaling pathway (AID 1159527).
In the case of `[I-].[K+]`, the result was inactive.

The values are drawn from the GenesisPotency data set.
